From patent publication US20240336977A1, “MICRORNA-REGULATED BIOMARKERS AND DRUG TARGETS FOR IMPROVING DIAGNOSIS AND TREATMENT OF LUNG OR BREAST CANCER” (West Virginia University Board of Governors on behalf of …, priority 2023, published 2024)
At least one structure is not confirmed: it was looked up by name or label, or the drawing left a doubt.

Assays:
HCC1806 = assay: Drug sensitivity categorisation of breast cancer cell line HCC1806; type: cell-based, human; settings: TNBC cell line HCC1806; categorised from IC50, ln(IC50), EC50, ln(EC50)
Excerpt: (§1) Drug Sensitivity Data of Breast Cancer Cell Lines The drug sensitivity data of breast cancer cell lines were obtained from two distinct sources. The first source was the Profiling Relative Inhibition Simultaneously in Mixtures (PRISM) [Corsello, S. M.; Nagari, R. T.; Spangler, R. D.; Rossen, J.; Kocak, M.; Bryan, J. G.; Humeidi, R.; Peck, D.; Wu, X.; Tang, A. A.; et al. Discovering the anti-cancer potential of non-oncology drugs by systematic viability profiling. Nature cancer 2020, 1, 235-248, doi:10.1038/s43018-019-0018-6] secondary screen data, which was provided in the DepMap 19Q4 data release (https://depmap.org/portal, accessed on 23 May 2023). The second source encompassed the Genomics of Drug Sensitivity in Cancer (GDSC1 and GDSC2) datasets [Yang, W.; Soares, J.; Greninger, P.; Edelman, E. J.; Lightfoot, H.; Forbes, S.; Bindal, N.; Beare, D.; Smith, J. A.; Thompson, I. R.; et al. Genomics of Drug Sensitivity in Cancer (GDSC): a resource for therapeutic biomarker discovery in cancer cells. Nucleic acids research 2013, 41, D955-961, doi:10.1093/nar/gksllll, Iorio, F.; Knijnenburg, T. A.; Vis, D. J.; Bignell, G. R.; Menden, M. P.; Schubert, M.; Aben, N.; Goncalves, E.; Barthorpe, S.; Lightfoot, H.; et al. A Landscape of Pharmacogenomic Interactions in Cancer. Cell 2016, 166, 740-754, doi:10.1016/j.cell.2016.06.017, Garnett, M. J.; Edelman, E. J.; Heidorn, S. J.; Greenman, C. D.; Dastur, A.; Lau, K. W.; Greninger, P.; Thompson, I. R.; Luo, X.; Soares, J.; et al. Systematic identification of genomic markers of drug sensitivity in cancer cells. Nature 2012, 483, 570-575, doi:10.1038/nature11005], which were made available through CancerRxGene (https://www.cancerrxgene.org/, accessed on 25 May 2023). In this study, we examined drug sensitivity using various measurements, including IC50, ln(IC50), EC50, and ln(EC50). Further details regarding the categorization of drug sensitivity and resistance can be found in our previous work [Ye, Q.; Mohamed, R.; Dukhlallah, D.; Gencheva, M.; Hu, G.; Pearce, M. C.; Kolluri, S. K.; Marsh, C. […]

HCC1143 = assay: Drug sensitivity categorisation of breast cancer cell line HCC1143; type: cell-based, human; settings: TNBC cell line HCC1143; categorised from IC50, ln(IC50), EC50, ln(EC50)
Excerpt: as §1, with “C.” for “C. D.; Dastur, A.; Lau, K. W.; Greninger, P.; Thompson, I. R.; Luo, X.; Soares, J.; et al. Systematic identification of genomic markers of drug sensitivity in cancer cells. Nature 2012, 483, 570-575, doi:10.1038/nature11005], which were made available through CancerRxGene (https://www.cancerrxgene.org/, accessed on 25 May 2023). In this study, we examined drug sensitivity using various measurements, including IC50, ln(IC50), EC50, and ln(EC50). Further details regarding the categorization of drug sensitivity and resistance can be found in our previous work [Ye, Q.; Mohamed, R.; Dukhlallah, D.; Gencheva, M.; Hu, G.; Pearce, M. C.; Kolluri, S. K.; Marsh, C.”

HCC38 = assay: Drug sensitivity (PRISM) of breast cancer cell line HCC38; type: cell-based, human; settings: TNBC cell line HCC38; categorised from IC50, ln(IC50), EC50, ln(EC50)
Excerpt: as §1

[1] = test system: CCLE human BRCA cell lines; assay: PRISM average IC50/EC50 of six CMap-selected drugs in CCLE human BRCA cell lines (n=22); type: cell-based; settings: PRISM screening data
HCC1937 [2] = assay: Drug sensitivity (PRISM) of breast cancer cell line HCC1937; type: cell-based, human; settings: TNBC cell line HCC1937; categorised from IC50, ln(IC50), EC50, ln(EC50)
Excerpt: as §1, with “C.” for “C. D.; Dastur, A.; Lau, K. W.; Greninger, P.; Thompson, I. R.; Luo, X.; Soares, J.; et al. Systematic identification of genomic markers of drug sensitivity in cancer cells. Nature 2012, 483, 570-575, doi:10.1038/nature11005], which were made available through CancerRxGene (https://www.cancerrxgene.org/, accessed on 25 May 2023). In this study, we examined drug sensitivity using various measurements, including IC50, ln(IC50), EC50, and ln(EC50). Further details regarding the categorization of drug sensitivity and resistance can be found in our previous work [Ye, Q.; Mohamed, R.; Dukhlallah, D.; Gencheva, M.; Hu, G.; Pearce, M. C.; Kolluri, S. K.; Marsh, C.”

MCF7 cells = assay: Drug sensitivity categorisation of breast cancer cell line MCF7; type: cell-based, human; settings: Luminal A MCF7 cells; categorised from IC50, ln(IC50), EC50, ln(EC50)
Excerpt: as §1, with “C.” for “C. D.; Dastur, A.; Lau, K. W.; Greninger, P.; Thompson, I. R.; Luo, X.; Soares, J.; et al. Systematic identification of genomic markers of drug sensitivity in cancer cells. Nature 2012, 483, 570-575, doi:10.1038/nature11005], which were made available through CancerRxGene (https://www.cancerrxgene.org/, accessed on 25 May 2023). In this study, we examined drug sensitivity using various measurements, including IC50, ln(IC50), EC50, and ln(EC50). Further details regarding the categorization of drug sensitivity and resistance can be found in our previous work [Ye, Q.; Mohamed, R.; Dukhlallah, D.; Gencheva, M.; Hu, G.; Pearce, M. C.; Kolluri, S. K.; Marsh, C.”

HCC1937 [3] = settings: cell line HCC1937; PRISM data; outlier removed from plots; cited from earlier work
metastatic breast cancer = settings: Phase II clinical trial; cited from earlier work

Structure (SMILES) | cell line sensitive or resistant to drug (HCC1806) | cell line sensitive or resistant to drug (HCC1143) | cell line sensitive or resistant to drug (HCC38) | average concentration of drug response (IC50 and EC50) [1] | cell line sensitive or resistant to drug (HCC1937 [2]) | cell line sensitive or resistant to drug (MCF7 cells) | EC50 (HCC1937 [3]) [µM] | overall response rate (metastatic breast cancer) [%]
C[C@]12O[C@H](C[C@]1(O)CO)n1c3ccccc3c3c4c(c5c6ccccc6n2c5c31)CNC4=O [lestaurtinib] | resistant | resistant | resistant |  |  |  |  | 
Cc1nc(Nc2ncc(C(=O)Nc3c(C)cccc3Cl)s2)cc(N2CCN(CCO)CC2)n1 [dasatinib] | resistant |  | resistant | low | resistant | resistant |  | 
CO[C@@H]1[C@H](N(C)C(=O)c2ccccc2)C[C@H]2O[C@]1(C)n1c3ccccc3c3c4c(c5c6ccccc6n2c5c31)C(=O)NC4 [midostaurin] | sensitive | resistant | resistant |  | resistant |  |  | 
CN1CCN(CCOc2cc(OC3CCOCC3)c3c(Nc4c(Cl)ccc5c4OCO5)ncnc3c2)CC1 [saracatinib] |  |  |  |  |  |  | 24.5 | 
CCN(CC)CCNC(=O)c1c(C)[nH]c(/C=C2\C(=O)Nc3ccc(F)cc32)c1C [Sunitinib] |  |  |  |  |  |  |  | 11
